About 610 (0.17%) of roughly 360,000 compounds were called active. Inconclusive means that the source gave no clear call. Such entries were picked first, then a sample of the others. Cut-off read from the data, not from the text of the source: active = inhibition above about 30%; inconclusive = no clear call, values can overlap the other calls; inactive = below that.
Each compound was assayed on Botulinum neurotoxin type A light chain protease (Clostridium botulinum A str. ATCC 3502) (assay: blockers of BoNT/A LC substrate cleavage – biochemical, flow cytometry, MLPCN library, primary screen (AID 588499; note: plate controls were buffer without enzyme for full effect and enzyme alone for no effect)). Details: multiplex microsphere protease substrate cleavage, at 10 µM, hits give high values.

Which inhibition does the source give for `CC(=O)Nc1ccc(C2=NN(c3ccccc3)C(c3cccs3)C2)cc1` (stereo not drawn) here?
The inhibition was inactive: -1.3%.

With `O=C(NC(=O)c1ccccc1Cl)Nc1ccc(-c2cnco2)cc1` as the compound, how does the inhibition read?
The inhibition was inconclusive: -45.4%.

For `CCCCOc1cccc(C2/C(=C(/O)c3ccc4c(c3)CC(C)O4)C(=O)C(=O)N2CCN2CCOCC2)c1` (stereo not drawn), which inhibition is on record?
The inhibition was inconclusive: -3.1%.

For `Cc1ccc(C(=O)Nc2cc3ccccc3oc2=O)cc1`, which inhibition is on record?
Its inhibition is inactive: -0.2%.

`Nc1nc2ccc(S(=O)(=O)c3ccc4nc(N)sc4c3)cc2s1` was tested. Which inhibition did it give?
The inhibition was inactive: -0.2%.

Which inhibition does the source give for `CN(C)C(=O)CSc1nnc(NC(=O)CCc2ccccc2)s1` here?
The inhibition was inconclusive: 2.5%.

`O=C(Nc1cccc(OC(=O)c2cccnc2)c1)c1cccnc1` was tested. Which inhibition did it give?
The inhibition was inconclusive: -2.9%.

Which inhibition does the source give for `Cc1ccc(-c2ccc(=O)n(CC(=O)Nc3cccc(C(=O)N4CCN(C)CC4)c3)n2)cc1` here?
The inhibition was inconclusive: 6.2%.

`COc1ccccc1NC(=O)/C=C\c1ccco1` was tested. Which inhibition did it give?
The inhibition was inactive: -0.9%.

With `O=C(Nc1ccccc1C(=O)NC1CCCCC1)c1ccco1` as the compound, how does the inhibition read?
Its inhibition is inactive: 0.1%.

How did the inhibition turn out when `N#CC1C(=O)c2ccccc2C1c1ccccc1` (stereo not drawn) was run?
The inhibition was inactive: -0.4%.

How did the inhibition turn out when `CCc1cc(/C(Cc2ccccn2)=N\Nc2ccccc2)c(O)cc1O` was run?
The inhibition was inactive: 0.2%.

Which inhibition does the source give for `CC(=O)Nc1ccc(S(=O)(=O)Oc2ccc(N3C(=O)C4CCCCC4C3=O)cc2)cc1` (stereo not drawn) here?
Its inhibition is inconclusive: 2.2%.

With `Cc1ccc(N=Cc2ccc(O)cc2O)cc1F` as the compound, how does the inhibition read?
Its inhibition is inconclusive: 4.3%.

For `CCN(CC)C(=O)CSc1nnc(CSc2ncccn2)n1C`, which inhibition is on record?
Its inhibition is inactive: -0.6%.

Which inhibition does the source give for `CCOc1ccc(NCc2nnc(SCC(=O)Nc3cc(C)on3)n2-c2ccccc2OC)cc1` here?
The inhibition was inconclusive: 7.3%.

`CCn1c(SCC(=O)N2CCN(c3ccccc3)CC2)nnc1-c1cc2cc(Cl)ccc2o1` was tested. Which inhibition did it give?
The inhibition was inconclusive: 0.9%.

With `Cc1[nH][nH]c(=O)c1N=Nc1ccccc1Cl` as the compound, how does the inhibition read?
Its inhibition is inconclusive: 7.7%.

How did the inhibition turn out when `COc1ccccc1N1CCN(C(=O)c2cc3c(=O)n4cccc(C)c4nc3s2)CC1` was run?
Its inhibition is inactive: 5.9%.

Which inhibition does the source give for `CCCN=C1N(C)C[C@@H]2[C@@H]3C(=O)N(C)C(=O)[C@@H]3[C@](CC)(C(=O)OC)N12` here?
Its inhibition is inactive: -0.2%.

Which inhibition does the source give for `CCOc1cc(C(=O)Nc2cccnc2)cc(OCC)c1OCC` here?
The inhibition was inconclusive: 3.3%.

Which inhibition does the source give for `Cc1nc(-c2nc(C(=O)NNS(C)(=O)=O)cs2)cs1` here?
The inhibition was inconclusive: -10.8%.

For `O=C(c1cc2c(s1)CCCC2)N1CCC2(CC1)OCCO2`, which inhibition is on record?
Its inhibition is inconclusive: -0.1%.

With `CC(C)(C)c1csc(CS(=O)(=O)c2ccccn2)n1` as the compound, how does the inhibition read?
Its inhibition is inconclusive: 0%.

For `CCOc1ccccc1C1CC(=O)Nc2cc3c(cc21)OCCO3` (stereo not drawn), which inhibition is on record?
Its inhibition is inactive: -2.7%.

For `CCOc1cc(/C=C2\SC(=NC)N(C)C2=O)c(Br)cc1OC(C)=O`, which inhibition is on record?
The inhibition was inconclusive: -1.4%.

Which inhibition does the source give for `O=C1CCc2cc(S(=O)(=O)NCCC(=O)N3CCN(c4cccc(Cl)c4)CC3)ccc2N1` here?
Its inhibition is inconclusive: 0.8%.

How did the inhibition turn out when `O=C(NC(=S)Nc1ccccc1Cl)c1csnn1` was run?
The inhibition was inconclusive: 0.7%.

For `CCOC(=O)N1CCC(N(CCN(C)C)C(=S)Nc2cccc(Cl)c2)CC1`, which inhibition is on record?
The inhibition was inactive: -1.4%.

For `COC(=O)c1ccccc1NC(=O)C1CCC(=O)N1S(=O)(=O)c1ccc(C)cc1` (stereo not drawn), which inhibition is on record?
The inhibition was inconclusive: -1%.

For `Cc1ccnc(NC(=O)c2cc(-n3cnnc3)ccc2Cl)c1`, which inhibition is on record?
The inhibition was inconclusive: -1.3%.

How did the inhibition turn out when `Cc1ccc2c(C)c(C(=O)N3CCC(O)(c4ccccc4)CC3)oc2c1C` was run?
Its inhibition is inactive: 1.1%.

For `Cn1c2ccccc2c2cc(/C=N/NC(=O)c3ccccc3F)ccc21`, which inhibition is on record?
The inhibition was inactive: -6.7%.

For `CN(CCO)C(=O)C(c1ccccc1)c1ccccc1`, which inhibition is on record?
Its inhibition is inconclusive: 6.3%.

Which inhibition does the source give for `Cc1cccc(C(=O)Nc2ccc(Cl)cc2C(=O)c2ccccc2)c1` here?
Its inhibition is inconclusive: 0.4%.

For `Fc1cccc(/C=N/Nc2ccc3ccccc3n2)c1`, which inhibition is on record?
The inhibition was inactive: -1.1%.

For `COc1cccc(CC(CC(=O)O)C(=O)Nc2cc(C)ccc2C)c1` (stereo not drawn), which inhibition is on record?
The inhibition was inconclusive: 1.7%.

With `CCC(C)(C(=O)NC1CCCCC1)N(C(=O)c1cnccn1)c1c(C)n(C)n(-c2ccccc2)c1=O` (stereo not drawn) as the compound, how does the inhibition read?
The inhibition was inconclusive: -5.6%.

Which inhibition does the source give for `COC(=O)c1ccccc1-c1c2ccc(=N)cc-2oc2cc(N)ccc12` here?
The inhibition was inactive: 9.3%.

Which inhibition does the source give for `Cc1cccc(C)c1OCC(=O)NCc1nnc(SCC(=O)NC2CCCCC2)n1C` here?
The inhibition was inconclusive: -1.2%.

With `Cc1ccsc1-c1nc(-c2ccccc2)c(-c2ccccc2)[nH]1` as the compound, how does the inhibition read?
Its inhibition is inactive: -0.1%.

`COC(=O)c1cnc(Oc2ccc(NC(=O)NC(=O)c3c(F)cccc3Cl)cc2)cc1C(F)(F)F` was tested. Which inhibition did it give?
The inhibition was inconclusive: 0%.

With `O=C(O)c1cc(S(=O)(=O)NCCOc2ccccc2)ccc1Cl` as the compound, how does the inhibition read?
The inhibition was inactive: -2.1%.

`Cc1nc2ccc(NC(=O)NCc3ccco3)cc2s1` was tested. Which inhibition did it give?
The inhibition was inconclusive: 3.6%.

How did the inhibition turn out when `COc1ccc2oc(=O)c(C(C)=O)cc2c1` was run?
The inhibition was inactive: 0.7%.

`O=C(NCCCN1CCOCC1)C(C(=O)c1ccccc1)n1ccccc1=O` (stereo not drawn) was tested. Which inhibition did it give?
Its inhibition is inactive: 1.2%.

With `CCn1c(SCC(=O)Nc2ccc3c(c2)OCCO3)nnc1-c1ccccn1` as the compound, how does the inhibition read?
The inhibition was inactive: -1.7%.

Which inhibition does the source give for `O=C(NCc1ccc2c(c1)OCO2)c1ccc(-n2cnnn2)cc1` here?
The inhibition was inconclusive: -1.1%.

How did the inhibition turn out when `COc1ccc(C(=O)Nc2ccccc2C(=O)NCc2ccco2)cc1OC` was run?
Its inhibition is inconclusive: -0.5%.

How did the inhibition turn out when `O=C(c1sccc1Cl)N1CCN(Cc2ccc3c(c2)OCO3)CC1` was run?
The inhibition was inconclusive: 0.5%.

For `CCOc1ccc(CN2CCN(CC3CC3)CC2CCO)cc1` (stereo not drawn), which inhibition is on record?
Its inhibition is inconclusive: 6.5%.

With `Cc1ccc(S(=O)(=O)N2CCC(C(=O)Nc3ccc(S(=O)(=O)N4CCCC4)cc3)CC2)cc1` as the compound, how does the inhibition read?
The inhibition was inconclusive: 0.4%.

For `Cc1noc(C)c1S(=O)(=O)Nc1ccccc1OC(F)(F)F`, which inhibition is on record?
Its inhibition is inconclusive: -5.5%.

Which inhibition does the source give for `Cc1ccc(-n2c(CSc3nc(C)cc(C)n3)nnc2SCC(=O)NCc2ccco2)cc1` here?
Its inhibition is inconclusive: 1.1%.

Which inhibition does the source give for `CC(/C=N/n1cnnc1)=C\c1ccco1` here?
The inhibition was inconclusive: -1.3%.

With `COc1ccc(C)cc1S(=O)(=O)N(C)CC(=O)N1CCCCCC1` as the compound, how does the inhibition read?
The inhibition was inconclusive: -1.7%.

How did the inhibition turn out when `Cc1ccc(C(=O)NCC(=O)Nc2ccc3c(c2)CCC3)cc1C` was run?
The inhibition was inconclusive: 4.5%.

With `CCCCc1ccc(-c2nc(-c3ccncc3)no2)cc1` as the compound, how does the inhibition read?
The inhibition was inactive: -0.6%.

`COC(=O)c1c(NC(=O)c2cccnc2)sc(C)c1C` was tested. Which inhibition did it give?
Its inhibition is inactive: -0.4%.

Which inhibition does the source give for `COc1ccc(NC(=S)NNC(=O)OC(C)(C)C)cc1OC` here?
The inhibition was inconclusive: -1%.

With `O=C(O)C(O)(c1ccccc1)C(O)c1ccccc1` (stereo not drawn) as the compound, how does the inhibition read?
Its inhibition is inconclusive: 2.7%.

`Cc1ccccc1CN1C(=O)c2ccccc2C1c1nnnn1C(C)C` (stereo not drawn) was tested. Which inhibition did it give?
Its inhibition is inactive: -0.1%.

Which inhibition does the source give for `COc1cc(CCC(=O)NNC(=O)c2ccc(C)cc2)cc(OC)c1OC` here?
The inhibition was inactive: -0.4%.

Which inhibition does the source give for `CCOC(=O)/C=C/C(=O)Nc1cccc([N+](=O)[O-])c1` here?
Its inhibition is inactive: 1.6%.

How did the inhibition turn out when `NC(=O)c1sc2nc3c(cc2c1N)CCCCCC3` was run?
The inhibition was inconclusive: 19.4%.

How did the inhibition turn out when `COc1ccc([C@H]2CC(=O)C=C(c3ccc(C)cc3)C2)cc1OC` was run?
The inhibition was inactive: -0.3%.

How did the inhibition turn out when `Cn1c(=O)c2c(ncn2CC(=O)OCC(=O)NC2CCCc3ccccc32)n(C)c1=O` (stereo not drawn) was run?
Its inhibition is inconclusive: -0.9%.

How did the inhibition turn out when `CC1=C(C(N)=O)C(c2cccnc2)n2nc(-c3cccc(C)c3)nc2N1` (stereo not drawn) was run?
The inhibition was inactive: 2%.

With `COc1ccc(CCCC(=O)Nc2cc(C)ccc2OC)cc1` as the compound, how does the inhibition read?
The inhibition was inconclusive: 4.6%.

Which inhibition does the source give for `CN1CCN(Cc2nc3ccccc3n2C)CC1` here?
The inhibition was inconclusive: 4.2%.

For `CN(C)CCSc1nc(O)c(-c2ccccc2)c(=O)n1-c1ccccc1`, which inhibition is on record?
The inhibition was inconclusive: -20.8%.

With `COc1ccc(CC(=O)OCC(=O)Nc2cc(Cl)ccc2C)cc1` as the compound, how does the inhibition read?
Its inhibition is inactive: -0.2%.

For `CC(C)(C)OC(=O)N1CCC[C@H]1c1nnc(SCC(=O)Nc2cccc(Cl)c2)o1`, which inhibition is on record?
The inhibition was inconclusive: -34.3%.

Which inhibition does the source give for `c1ccc2c(Nc3nnc(-c4ccncc4)s3)cccc2c1` here?
The inhibition was inactive: -2.2%.

Which inhibition does the source give for `CCOc1ccc(S(=O)(=O)NCCC(=O)NCC(c2ccc(OC)cc2)N2CCCCC2)cc1` (stereo not drawn) here?
Its inhibition is inconclusive: 3.5%.

With `CN1C(=O)C(CC(=O)Nc2ccc(F)cc2)N(Cc2cccs2)C1=S` (stereo not drawn) as the compound, how does the inhibition read?
The inhibition was inactive: -2.9%.

Which inhibition does the source give for `Cn1c(CNC(=O)OC(C)(C)C)nnc1SCc1c(Cl)cccc1Cl` here?
Its inhibition is inconclusive: 3.9%.

`CC1CCc2sc(C(=O)NNC(=S)NC3CC3)cc2C1` (stereo not drawn) was tested. Which inhibition did it give?
The inhibition was inactive: -0.2%.

For `O=C(Nc1ccc2c(c1)OCO2)c1ccc(N2CCCC2)c([N+](=O)[O-])c1`, which inhibition is on record?
Its inhibition is inactive: 0.5%.

`COc1cc([N+](=O)[O-])cc(CN2CCCCC2)c1O` was tested. Which inhibition did it give?
Its inhibition is inconclusive: -2.1%.

`COc1ccc(C(=O)NCCSc2ccccc2C)cc1` was tested. Which inhibition did it give?
Its inhibition is inconclusive: -0.7%.

For `COc1ccc(C2=NOC3(CC(=O)N(c4ccc5ccccc5c4)C3=O)C2)c(OC)c1` (stereo not drawn), which inhibition is on record?
Its inhibition is inconclusive: -4.6%.

Which inhibition does the source give for `C/C(=C\C=C(C#N)C#N)c1cc(C#N)c(N)o1` here?
Its inhibition is inactive: -2%.

How did the inhibition turn out when `CCOC(=O)N1CCN(C(=O)c2cccn3c(=O)c4sccc4nc23)CC1` was run?
The inhibition was inconclusive: -0.7%.

How did the inhibition turn out when `O=C(NCCc1ccccc1)C1c2ccccc2C(=O)N1C1CC1` (stereo not drawn) was run?
Its inhibition is inconclusive: -0.8%.

With `O=C(NCCc1ccccc1)C(c1cccs1)N(C(=O)c1csnn1)C1CC1` (stereo not drawn) as the compound, how does the inhibition read?
The inhibition was inconclusive: 4.8%.

How did the inhibition turn out when `COc1ccc(C(CNC(=O)c2cccc(S(=O)(=O)Nc3cccc(C)c3)c2)N2CCOCC2)cc1` (stereo not drawn) was run?
Its inhibition is inconclusive: -4.1%.

Which inhibition does the source give for `CCC(C)N=Cc1c(O)n(-c2ccccc2)c(=O)[nH]c1=O` (stereo not drawn) here?
The inhibition was inconclusive: 2.3%.

For `O=C1/C(=C/c2cccc(Cl)c2)SC(=S)N1CCC(=O)N1CCCCC1CCO` (stereo not drawn), which inhibition is on record?
Its inhibition is inactive: -0.5%.

Which inhibition does the source give for `Cc1ccc(S(=O)c2ccc(C)cc2)cc1` here?
Its inhibition is inconclusive: 0.7%.

Which inhibition does the source give for `O=C(NCCCN1CCCC1=O)C(=O)NCC1OCCN1S(=O)(=O)c1ccc(Cl)cc1` (stereo not drawn) here?
The inhibition was inactive: 0.3%.

How did the inhibition turn out when `COc1ccccc1C(=O)Nn1c(C2CCC2)nc2ccccc2c1=O` was run?
Its inhibition is inconclusive: 0.2%.

Which inhibition does the source give for `Cc1ccc(S(=O)(=O)Nc2nsc(N)n2)cc1` here?
The inhibition was inactive: -3.3%.
